Data as given in paper PMC7870846, “Incorporation of sensing modalities into de novo designed fluorescence-activating proteins” (Nature Communications, 2021).

System: m14_aBCLXL
Experiment: Titration of BCLXL_m58 into m14_aBCLXL (bimolecular association model)
Format: binding
Conditions: of 7.64 µM total

B1: m14_aBCLXL: aBCLXL fused to split mFAP fragment m14 (protein)
chain: SRAAQLLPGTWQATFTNEDGQTSQGQWHFQPRSPYTMDIVAQGTISDGRPIVGYGKATVKTPGSSGGSGGSGADPKKVLDKAKDRAENVVRKLKKELEELYKEARKLDLTQEMRDRIRRTAIAARFQAHGDIFHAIKHAKEEARKLKKAGLVNSQQLDELKRRLRELDEEAEQRAEKLGKEFRLKLEYG
folded concentration: 4.06 µM
